These are yes or no findings as the source states them, for the method shown. Binding seen in cells or lysates may run through a third protein. Some results given as binding are weak or reduced against the parent protein; the word gives no strength. Sequences can lack the tags named with a protein.
T1: mammalian PDC E1p α subunit, PDHA1-HA-Halo (human) (UniProt P08559)
T1 sequence: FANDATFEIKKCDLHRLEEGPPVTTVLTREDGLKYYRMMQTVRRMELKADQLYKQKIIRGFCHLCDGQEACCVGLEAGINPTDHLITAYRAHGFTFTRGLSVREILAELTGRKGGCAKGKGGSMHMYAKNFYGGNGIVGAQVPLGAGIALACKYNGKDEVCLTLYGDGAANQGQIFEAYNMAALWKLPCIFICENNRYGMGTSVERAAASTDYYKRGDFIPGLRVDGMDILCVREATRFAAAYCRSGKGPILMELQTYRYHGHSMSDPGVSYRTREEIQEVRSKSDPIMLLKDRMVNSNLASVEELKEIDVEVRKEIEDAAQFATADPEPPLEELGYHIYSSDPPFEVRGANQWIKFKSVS


Target: T1, mammalian PDC E1p α subunit, PDHA1-HA-Halo (human)
Assay: co-IP; Halo purification via PDHA1-HA-Halo from HEK293T cells, then SEC on Superose 6 in 350 mM, 150 mM or 0 mM NaCl; fractions blotted for mPDC components

binding | Binder
binds | mammalian PDC E1p β subunit (endogenous) (protein, UniProt P11177 31-359) LQVTVRDAINQGMDEELERDEKVFLLGEEVAQYDGAYKVSRGLWKKYGDKRIIDTPISEMGFAGIAVGAAMAGLRPICEFMTFNFSMQAIDQVINSAAKTYYMSGGLQPVPIVFRGPNGASAGVAAQHSQCFAAWYGHCPGLKVVSPWNSEDAKGLIKSAIRDNNPVVVLENELMYGVPFEFPPEAQSKDFLIPIGKAKIERQGTHITVVSHSRPVGHCLEAAAVLSKEGVECEVINMRTIRPMDMETIEASVMKTNHLVTVEGGWPQFGVGAEICARIMEGPAFNFLDAPAVRVTGADVPMPYAKILEDNSIPQVKDIIFAIKKTLNI
binds | mammalian PDC E2p (endogenous) (protein, UniProt P10515 87-647) SLPPHQKVPLPSLSPTMQAGTIARWEKKEGDKINEGDLIAEVETDKATVGFESLEECYMAKILVAEGTRDVPIGAIICITVGKPEDIEAFKNYTLDSSAAPTPQAAPAPTPAATASPPTPSAQAPGSSYPPHMQVLLPALSPTMTMGTVQRWEKKVGEKLSEGDLLAEIETDKATIGFEVQEEGYLAKILVPEGTRDVPLGTPLCIIVEKEADISAFADYRPTEVTDLKPQVPPPTPPPVAAVPPTPQPLAPTPSAPCPATPAGPKGRVFVSPLAKKLAVEKGIDLTQVKGTGPDGRITKKDIDSFVPSKVAPAPAAVVPPTGPGMAPVPTGVFTDIPISNIRRVIAQRLMQSKQTIPHYYLSIDVNMGEVLLVRKELNKILEGRSKISVNDFIIKASALACLKVPEANSSWMDTVIRQNHVVDVSVAVSTPAGLITPIVFNAHIKGVETIANDVVSLATKAREGKLQPHEFQGGTFTISNLGMFGIKNFSAIINPPQACILAIGASEDKLVPADNEKGFDVASMMSVTLSCDHRVVDGAVGAQWLAEFRKYLEKPITMLL
